# Laboratory results: article PMC6925144, “A prospective compound screening contest identified broader inhibitors for Sirtuin 1” (Scientific Reports, 2019)
# Protein sequences, listed by entry. Tags and fused reporters are not part of them. Residues count along the entry.
# UniProt Q96EB6, 2-747 limits assumed: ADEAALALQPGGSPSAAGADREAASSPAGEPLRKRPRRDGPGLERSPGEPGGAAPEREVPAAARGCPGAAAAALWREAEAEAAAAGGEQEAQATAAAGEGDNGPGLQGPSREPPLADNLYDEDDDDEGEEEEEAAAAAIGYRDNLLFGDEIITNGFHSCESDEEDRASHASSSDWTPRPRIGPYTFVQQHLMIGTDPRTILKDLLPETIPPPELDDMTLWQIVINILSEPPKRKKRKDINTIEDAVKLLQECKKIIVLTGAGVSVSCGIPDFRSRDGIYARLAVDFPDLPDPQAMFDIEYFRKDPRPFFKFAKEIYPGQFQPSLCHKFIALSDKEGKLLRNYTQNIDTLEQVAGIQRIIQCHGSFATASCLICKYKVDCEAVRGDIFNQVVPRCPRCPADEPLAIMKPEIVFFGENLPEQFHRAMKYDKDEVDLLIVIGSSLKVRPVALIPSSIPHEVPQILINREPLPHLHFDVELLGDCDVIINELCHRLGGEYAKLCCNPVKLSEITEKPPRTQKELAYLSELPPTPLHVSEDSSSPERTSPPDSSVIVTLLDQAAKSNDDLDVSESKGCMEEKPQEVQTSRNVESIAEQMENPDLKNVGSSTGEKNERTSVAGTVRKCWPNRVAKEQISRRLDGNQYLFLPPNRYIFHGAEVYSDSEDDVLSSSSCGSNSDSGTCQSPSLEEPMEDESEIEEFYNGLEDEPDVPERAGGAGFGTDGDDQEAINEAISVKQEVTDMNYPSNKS
# The full ranking holds about 3,200 compounds; the median of “TSA(without NAD+) / Primary screening (TSA) / delta Tm (K)” is about -0.07, and the highest 2% start at about 0.37. This is one part of the list.
# Target: NAD-dependent deacetylase Sirtuin 1 (human, UniProt Q96EB6)
# Assay: primary screen, delta tm
# Design: single well (n = 1)
# Settings: 10 µM
# In short: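 Thermal shift of Sirtuin 1 measured without NAD+, compound at 10 µM (n = 1); value is ΔTm, with hits defined as ΔTm > 0.45 K or < −1.5 K. Hits retested at 5, 10, 20 µM (n = 4) and counterscreened on bovine carbonic anhydrase and ABL1 SH2 domain.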
row,SMILES,TSA(without NAD+) / Primary screening (TSA) / delta Tm (K)
1,Cc1c(CCC#N)c(Cl)n2c(nc3ccccc32)c1C#N,-0.04
2,COc1ccc(OCCC(=O)Nc2c(C(N)=O)n[nH]c2C)cc1,0.02
3,O=C(CCc1nc2ccccc2s1)Nc1cccc(S(=O)(=O)NCc2ccco2)c1,0.08
4,COc1cccc(CC(=O)N2CCC(O)(C(F)(F)F)C2)c1 (centres unmarked),-0.05
5,COc1cc(CN(C)C(=O)c2ccc3c(c2)C(=O)N(C)C3=O)ccc1OCc1ccccc1,-0.05
6,COc1ccccc1C(=O)NC(CCSC)C(=O)Nc1ccc(C23CC4CC(CC(C4)C2)C3)cc1 (centres unmarked),-0.08
7,CCNc1ncnc2c1cnn2-c1ccccc1,-0.18
8,O=C(CSc1nnc(-c2cccnc2)o1)N(Cc1ccccc1)c1nc2c(s1)CCCC2,0.08
9,COc1ccc(C2C(C(=O)c3ccc(C)cc3)=C(O)C(=O)N2CCCN2CCOCC2)cc1OC (centres unmarked),-0.02
10,O=c1cc(NCC2(c3ccccc3)CCC2)nc2ccccn12,0.02
11,O=C(O)Cn1c(S)nc2ccccc2c1=O,-0.18
12,NC(=O)c1cccc(NC(=O)c2cc3c(s2)-c2ccccc2CC3)c1,1.03
13,N#Cc1cc(Br)ccc1NCC1(CCO)CCOC1 (centres unmarked),-0.24
14,COc1ccc(C2C(C(=O)/C=C/c3ccco3)=C(O)C(=O)N2CCCN2CCOCC2)cc1OC (centres unmarked),0.06
15,Cc1csc(=O)n1CCC(=O)N1CCC(CC(N)=O)CC1,-0.11
16,COC(=O)c1ccc2c(=O)n(CCc3ccccc3)c(SCC(=O)N(C3CCCCC3)C3CCS(=O)(=O)C3)nc2c1 (centres unmarked),0.09
17,COC[C@H](C)N,0.05
18,O=C(CCc1c[nH]c2ccccc12)NNC(=O)CCN1CCN(c2ccccc2)CC1,-0.01
19,O=C(/C=C/c1ccco1)C1=C(O)C(=O)N(CCCN2CCOCC2)C1c1ccco1 (centres unmarked),-0.02
20,Cc1ccc(CNC(=O)C2CSCN2)c(O)c1 (centres unmarked),-0.18

# Reformatted: 2 of the compounds above.
row	SMILES	TSA(without NAD+) / Primary screening (TSA) / delta Tm (K)
2	COc1ccc(OCCC(=O)Nc2c(C(N)=O)n[nH]c2C)cc1	0.02
18	O=C(CCc1c[nH]c2ccccc12)NNC(=O)CCN1CCN(c2ccccc2)CC1	-0.01

# Additional structures

row,SMILES,TSA(without NAD+) / Primary screening (TSA) / delta Tm (K)
1,NC(=O)C1CCN(C(=O)c2cc3cc(Br)ccc3[nH]2)C1 (centres unmarked),0.12
2,CC(OC(=O)c1cccc(S(=O)(=O)NCc2ccco2)c1)C(=O)c1ccc2c(c1)CCC2 (centres unmarked),-0.05
3,O=C(Cc1c[nH]c2ccccc12)NCC1CCCN(Cc2cccs2)C1 (centres unmarked),-0.03
4,CC1CCCC(C)N1NC(=O)CCCN1C(=O)c2ccccc2C1=O (centres unmarked),-0.24
5,Cc1cc(CCNc2ccc3nnnn3n2)c(C)n1-c1ccccc1,0.09
6,CC1CC(C)n2nccc2N1C(=O)Cc1csc(-c2ccc(C(F)(F)F)cc2)n1 (centres unmarked),0.03
7,O=C(O)CN1CCN(Cc2ccccc2)C2(CCCCC2)C1,0.03
8,CN1CCN(c2ncnc3ccsc23)CC1,-0.03
9,NC(=O)C1CCN(C(=O)c2c[nH]c3cc(Br)c(Br)cc23)CC1,-0.01
10,COS(=O)(=O)OC,-0.01
11,COc1ccc(SC(C)C(N)=O)cc1 (centres unmarked),-0.12
12,COc1cc(CN(C)C(=O)c2ccc(-c3ccc(C(C)=O)cc3)o2)ccc1OCc1ccccc1,-0.02
13,N#CCn1c(COC(=O)CO/N=C2\c3ccccc3C3C=CC=CC23)nc2ccccc2c1=O (centres unmarked),-0.21
14,O=C(OCC(=O)C12CC3CC(CC(C3)C1)C2)[C@H](Cc1ccccc1)N1C(=O)c2ccccc2C1=O,-0.15
15,O=C(Nc1ccc(Cl)cn1)C1CCN(c2nc(C3CC3)nc3sc4c(c23)CCCC4)CC1,-0.04
16,COc1ccc(OC)c(CN(CC(=O)Nc2ccc(C(N)=O)cc2)C2CC2)c1,0.07
17,Cc1ccc(N(CC(=O)NC23CC4CC(CC(C4)C2)C3)S(=O)(=O)c2ccc3c(c2)OCCO3)cc1,-0.08
18,Cc1ccccc1NC(=O)COC(=O)c1ccccc1SCC(=O)NC12CC3CC(CC(C3)C1)C2,-0.14
19,Cc1cc(/C=N/NC(C)(C)C)c(C)n1-c1cc(S(=O)(=O)N2CCOCC2)ccc1N1CCCC1,0.17
20,O=C(c1ccc(O)cc1)C1CCN(c2ncnc3c2oc2ccccc23)CC1,0.22

row,SMILES,TSA(without NAD+) / Primary screening (TSA) / delta Tm (K)
1,CC(=O)N1CCCc2cc(S(=O)(=O)Nc3cccc4c3CCCC4)ccc21,-0.02
2,CCCCOC(=O)c1ccc(NC(=O)COC(=O)CNC(=O)C23CC4CC(CC(C4)C2)C3)cc1,0.48
3,Cc1ccc(-c2nnc(S)n2CCC(=O)N2CCN(Cc3nc(-c4cccs4)no3)CC2)cc1,0.07
4,O=C(Nc1cccc(S(=O)(=O)NCc2ccco2)c1)c1cn(-c2ccccc2)nc1-c1ccccc1,0.27
5,CC(N)CF (centres unmarked),-0.13
6,CCOC(=O)Nc1cccc(C(=O)NCc2ccc3c(c2)OCO3)c1,0.03
7,O=C(N1CCc2ccccc2CC1)N1CC2CCCN2Cc2ccccc21 (centres unmarked),-0.03
8,Cc1ccc(N(C)S(=O)(=O)c2cccc(C(=O)Nc3ccc(C(N)=O)cc3)c2)cc1,0.46
9,C/C(=N/Nc1cc(C(=O)O)ccc1Cl)c1ccc2ccccc2c1,-0.01
10,NCCOCCCO,-0.04
11,CC1CCc2c(sc3ncnc(N4CCN(S(=O)(=O)c5ccc6c(c5)OCCO6)CC4)c23)C1 (centres unmarked),0.03
12,O=C(CN1CCN(Cc2ccc(Br)s2)CC1)Nc1cc(Cl)ccc1-n1cncn1,0.12
13,COc1ccc2c(c1)CCCC2CNC(=O)c1cc(C(N)=O)cs1 (centres unmarked),-0.07
14,CN(Cc1ccc(C(=O)NCC(F)(F)F)cc1)Cc1nc2c(cnn2-c2ccccc2)c(=O)[nH]1,-0.02
15,COCCOCCN,-0.03
16,O=C(O)CCc1c(-c2ccc(F)cc2)[nH]c2ccccc12,-0.22
17,O=C1NC(=S)NC(=O)C1=Cc1cccnc1,-0.11
18,O=C(CNCc1ccco1)Nc1ccccc1C(F)(F)F,-0.12
19,Cc1ccc(N(C)S(=O)(=O)c2cccc(C(=O)Nc3cc(F)ccc3C)c2)cc1,-0.05

# Molecules listed so far with fluorine, in the order listed:
row,SMILES,TSA(without NAD+) / Primary screening (TSA) / delta Tm (K)
4,COc1cccc(CC(=O)N2CCC(O)(C(F)(F)F)C2)c1 (centres unmarked),-0.05
6,CC1CC(C)n2nccc2N1C(=O)Cc1csc(-c2ccc(C(F)(F)F)cc2)n1 (centres unmarked),0.03
5,CC(N)CF (centres unmarked),-0.13
14,CN(Cc1ccc(C(=O)NCC(F)(F)F)cc1)Cc1nc2c(cnn2-c2ccccc2)c(=O)[nH]1,-0.02
16,O=C(O)CCc1c(-c2ccc(F)cc2)[nH]c2ccccc12,-0.22
18,O=C(CNCc1ccco1)Nc1ccccc1C(F)(F)F,-0.12
19,Cc1ccc(N(C)S(=O)(=O)c2cccc(C(=O)Nc3cc(F)ccc3C)c2)cc1,-0.05
